Experimental data from PMC4051986.
Results are given in words; binding and its absence hold for the method and conditions named. Binding seen in cells or lysates may run through a third protein. These calls come from enrichment with a bait or labelling near it, and not all partners need be listed. No binding means not detected with the bait.

B1: FAAP10 (protein, UniProt P0DJH7 1-80)
chain: MEEREGGFRKETVERLLRLHFRDGRTRVNGDALLLMAELLKVFVREAAARAARQAQAEDLEKVDIEHVEKVLPQLLLDFV
B2: FAAP16 (protein, UniProt E1BSW7 1-139)
chain: MEAAGGEQRELLIQRLRAAVHYTTGCLCQDVAEDKGVLFSKQTVAAISEITFRQCENFARDLEMFARHAKRSTITSEDVKLLARRSNSLLKYITQKSDELASSNMEQKEKKKKKSSAAKGRKTEENETPVTESEDSNMA

Molecular target: FANCB with a C-terminal protein G-streptavidin binding peptide (GS) tag (chicken)
Assay: affinity purification with mass spectrometry; tandem affinity purification of FANCB-GS from ΔFANCB/FANCB-GS DT40 lysate at 4°C: IgG-agarose, TEV elution, streptavidin resin, biotin elution; 50 mM HEPES pH 8.0, 150 mM NaCl; SDS-PAGE bands identified by tandem mass spectrometry, FANCG and FANCM also by western blotting; the remaining subunits were also recovered from ΔFANCC cells

| Binder | binding |
| --- | --- |
| B1 | no binding |
| B2 | no binding |
